Consider 14 molecules from patent US20220242958A1, “BISPECIFIC NANOBODIES” (Ablynx N.V., priority 2013, published 2022).

Chains of the proteins cited; added tags and fusions are not shown. Lines headed by an entry give the natural chain unless they say otherwise; changes in a name come on top.
UniProt P61073: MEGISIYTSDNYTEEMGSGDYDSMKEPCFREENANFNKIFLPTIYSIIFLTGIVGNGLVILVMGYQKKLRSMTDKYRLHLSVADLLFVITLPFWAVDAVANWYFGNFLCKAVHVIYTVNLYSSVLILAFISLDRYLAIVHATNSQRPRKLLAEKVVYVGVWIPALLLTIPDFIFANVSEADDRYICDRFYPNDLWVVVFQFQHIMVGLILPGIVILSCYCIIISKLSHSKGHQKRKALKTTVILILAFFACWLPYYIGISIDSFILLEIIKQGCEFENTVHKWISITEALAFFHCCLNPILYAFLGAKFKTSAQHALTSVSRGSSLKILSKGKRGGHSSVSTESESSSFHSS
UniProt P26951: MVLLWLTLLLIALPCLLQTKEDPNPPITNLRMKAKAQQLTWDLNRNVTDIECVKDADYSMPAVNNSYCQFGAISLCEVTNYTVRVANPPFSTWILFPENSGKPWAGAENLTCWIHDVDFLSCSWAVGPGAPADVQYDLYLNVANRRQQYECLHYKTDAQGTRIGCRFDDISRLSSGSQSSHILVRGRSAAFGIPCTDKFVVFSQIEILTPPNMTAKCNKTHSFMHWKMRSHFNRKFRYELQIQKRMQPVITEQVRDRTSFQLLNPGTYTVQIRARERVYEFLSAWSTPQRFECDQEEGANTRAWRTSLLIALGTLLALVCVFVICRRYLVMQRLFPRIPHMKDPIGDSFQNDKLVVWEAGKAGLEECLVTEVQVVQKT

The chains are these.
B1: 14D09 (TAG), 4CXCR014D09-FLAG3-HIS6 (VHH)
VHH: EVQLVESGGGLVQAGGSLRLSCVASGISSSKRNMGWYRQAPGKQRESVATISSGGNKDYTDAVKDRFTISRDTTKNTVYLQMNSLKPEDTAVYYCKIEAGTGWATRRGYTYWGQGTLVTVSS
B2: 281F12-57A07 (4CXCR281F12(Q108L)-35GS-A0110057A07) (bispecific antibody)
chain: EVQLVESGGGLVQAGDSLRLSCAASGRAFSRYAMGWFRQAPGKEREFVAAIGWGPSKTNYADSVKGRFTISRDNAKNTVYLQMNTLKPEDTAVYSCAAKFVNTDSTWSRSEMYTYWGQGTLVTVSSGGGGSGGGGSGGGGSGGGGSGGGGSGGGGSGGGGSEVQLVESGGGLVQAGGSLRLSCAASGSIFSGNVMGWYRRQAPGKEREWVAAIASGGSIYYRDSVKGRFTISRDNAKNTVYLQMNSLKPEDTAVYYCNSHPPTLPYWGQGTLVTVSSAAAEQKLISEEDLNGAAHHHHHH
B3: 14D09-55A01 (4CXCR014D09(Q108L)-35GS-A0110055A01) (bispecific antibody)
chain: EVQLVESGGGLVQAGGSLRLSCVASGISSSKRNMGWYRQAPGKQRESVATISSGGNKDYTDAVKDRFTISRDTTKNTVYLQMNSLKPEDTAVYYCKIEAGTGWATRRGYTYWGQGTLVTVSSGGGGSGGGGSGGGGSGGGGSGGGGSGGGGSGGGGSEVQLVESGGGSVQAGGSLRLSCTTSGRALNMYVMGWFRQAPGNEREFVAATSSSGGSTSYPDSVKGRFTISRDNAKNTVYLQMNSLKPEDTAAYRCAASPYVSTPTMNILEEYRYWGQGTLVTVSSAAAEQKLISEEDLNGAAHHHHHH
B4: 57A07-281F12 (A0110057A07-35GS-4CXCR281F12(Q108L)) (bispecific antibody)
chain: EVQLVESGGGLVQAGGSLRLSCAASGSIFSGNVMGWYRRQAPGKEREWVAAIASGGSIYYRDSVKGRFTISRDNAKNTVYLQMNSLKPEDTAVYYCNSHPPTLPYWGQGTLVTVSSGGGGSGGGGSGGGGSGGGGSGGGGSGGGGSGGGGSEVQLVESGGGLVQAGDSLRLSCAASGRAFSRYAMGWFRQAPGKEREFVAAIGWGPSKTNYADSVKGRFTISRDNAKNTVYLQMNTLKPEDTAVYSCAAKFVNTDSTWSRSEMYTYWGQGTLVTVSSAAAEQKLISEEDLNGAAHHHHHH
B5: 55A01-281F12 (A0110055A01-35GS-4CXCR281F12(Q108L)) (bispecific antibody)
chain: EVQLVESGGGSVQAGGSLRLSCTTSGRALNMYVMGWFRQAPGNEREFVAATSSSGGSTSYPDSVKGRFTISRDNAKNTVYLQMNSLKPEDTAAYRCAASPYVSTPTMNILEEYRYWGQGTLVTVSSGGGGSGGGGSGGGGSGGGGSGGGGSGGGGSGGGGSEVQLVESGGGLVQAGDSLRLSCAASGRAFSRYAMGWFRQAPGKEREFVAAIGWGPSKTNYADSVKGRFTISRDNAKNTVYLQMNTLKPEDTAVYSCAAKFVNTDSTWSRSEMYTYWGQGTLVTVSSAAAEQKLISEEDLNGAAHHHHHH
B6: 281F12-55A01 (4CXCR281F12(Q108L)-35GS-A0110055A01) (bispecific antibody)
chain: EVQLVESGGGLVQAGDSLRLSCAASGRAFSRYAMGWFRQAPGKEREFVAAIGWGPSKTNYADSVKGRFTISRDNAKNTVYLQMNTLKPEDTAVYSCAAKFVNTDSTWSRSEMYTYWGQGTLVTVSSGGGGSGGGGSGGGGSGGGGSGGGGSGGGGSGGGGSEVQLVESGGGSVQAGGSLRLSCTTSGRALNMYVMGWFRQAPGNEREFVAATSSSGGSTSYPDSVKGRFTISRDNAKNTVYLQMNSLKPEDTAAYRCAASPYVSTPTMNILEEYRYWGQGTLVTVSSAAAEQKLISEEDLNGAAHHHHHH
B7: 57A07-14D09 (A0110057A07-35GS-4CXCR014D09(Q108L)) (bispecific antibody)
chain: EVQLVESGGGLVQAGGSLRLSCAASGSIFSGNVMGWYRRQAPGKEREWVAAIASGGSIYYRDSVKGRFTISRDNAKNTVYLQMNSLKPEDTAVYYCNSHPPTLPYWGQGTLVTVSSGGGGSGGGGSGGGGSGGGGSGGGGSGGGGSGGGGSEVQLVESGGGLVQAGGSLRLSCVASGISSSKRNMGWYRQAPGKQRESVATISSGGNKDYTDAVKDRFTISRDTTKNTVYLQMNSLKPEDTAVYYCKIEAGTGWATRRGYTYWGQGTLVTVSSAAAEQKLISEEDLNGAAHHHHHH
B8: 55A01-14D09 (A0110055A01-35GS-4CXCR014D09(Q108L)) (bispecific antibody)
chain: EVQLVESGGGSVQAGGSLRLSCTTSGRALNMYVMGWFRQAPGNEREFVAATSSSGGSTSYPDSVKGRFTISRDNAKNTVYLQMNSLKPEDTAAYRCAASPYVSTPTMNILEEYRYWGQGTLVTVSSGGGGSGGGGSGGGGSGGGGSGGGGSGGGGSGGGGSEVQLVESGGGLVQAGGSLRLSCVASGISSSKRNMGWYRQAPGKQRESVATISSGGNKDYTDAVKDRFTISRDTTKNTVYLQMNSLKPEDTAVYYCKIEAGTGWATRRGYTYWGQGTLVTVSSAAAEQKLISEEDLNGAAHHHHHH
B9: 14D09-57A07 (4CXCR014D09(Q108L)-35GS-A0110057A07) (bispecific antibody)
chain: EVQLVESGGGLVQAGGSLRLSCVASGISSSKRNMGWYRQAPGKQRESVATISSGGNKDYTDAVKDRFTISRDTTKNTVYLQMNSLKPEDTAVYYCKIEAGTGWATRRGYTYWGQGTLVTVSSGGGGSGGGGSGGGGSGGGGSGGGGSGGGGSGGGGSEVQLVESGGGLVQAGGSLRLSCAASGSIFSGNVMGWYRRQAPGKEREWVAAIASGGSIYYRDSVKGRFTISRDNAKNTVYLQMNSLKPEDTAVYYCNSHPPTLPYWGQGTLVTVSSAAAEQKLISEEDLNGAAHHHHHH
B10: CD4#8-IL12Rb2#1 (bispecific antibody)
chain: EVQLVESGGGSVQPGGSLTLSCGTSGRTFNVMGWFRQAPGKEREFVAAVRWSSTGIYYTQYADSVKSRFTISRDNAKNTVYLEMNSLKPEDTAVYYCAADTYNSNPARWDGYDFRGQGTLVTVSSGGGGSGGGGSGGGGSGGGGSGGGGSGGGGSGGGGSEVQLVESGGRLVQAGDSLRLSCAASGRTFISYRMGWFRQAPGKEREFVAALRWSSSNIDYTYYADSVKGRFSISGDYAKNTVYLQMNSLKAEDTAVYYCAASTRWGVMESDTEYTSWGQGTLVTVSS
B11: CD4#8-IL12Rb2#2 (bispecific antibody)
chain: B10 chain with I190T, A209S, S216G
B12: IL12Rb2#1-CD4#8 (bispecific antibody)
chain: EVQLVESGGRLVQAGDSLRLSCAASGRTFISYRMGWFRQAPGKEREFVAALRWSSSNIDYTYYADSVKGRFSISGDYAKNTVYLQMNSLKAEDTAVYYCAASTRWGVMESDTEYTSWGQGTLVTVSSGGGGSGGGGSGGGGSGGGGSGGGGSGGGGSGGGGSEVQLVESGGGSVQPGGSLTLSCGTSGRTFNVMGWFRQAPGKEREFVAAVRWSSTGIYYTQYADSVKSRFTISRDNAKNTVYLEMNSLKPEDTAVYYCAADTYNSNPARWDGYDFRGQGTLVTVSS
B13: IL12Rb2#2-CD4#8 (bispecific antibody)
chain: B12 chain with I30T, A49S, S56G
B14: 281F12-35GS-03F11 (bispecific antibody)
chain: EVQLVESGGGLVQAGDSLRLSCAASGRAFSRYAMGWFRQAPGKEREFVAAIGWGPSKTNYADSVKGRFTISRDNAKNTVYLQMNTLKPEDTAVYSCAAKFVNTDSTWSRSEMYTYWGQGTQVTVSSGGGGSGGGGSGGGGSGGGGSGGGGSGGGGSGGGGSEVQLVESGGGSVQPGGSLTLSCGTSGRTFNVMGWFRQAPGKEREFVAAVRWSSTGIYYTQYADSVKSRFTISRDNAKNTVYLEMNSLKPEDTAVYYCAADTYNSNPARWDGYDFRGQGTQVTVSS

Positions count from the first letter of the chain named. Names may count otherwise. These are yes or no findings as the source states them, for the method shown. Some results given as binding are weak or reduced against the parent protein; the word gives no strength. For part of these data: Tags and fused reporters may be left off the sequences shown.

The first test concerns the target human CXCR4 (on cells, membrane extracts or viral lipoparticles) (human) (UniProt P61073). Kind of test: cell binding and CXCR4-VLP ELISA. In general terms: In an ELISA, binding on a coated surface is turned into a signal by an enzyme label.
Take B1: the binding result is recorded as “binds”.

In another test the target is T1, CXCR4 and IL-3Rα (CD123) co-expressed on MOLM-13 cells (human) (UniProt P61073+P26951). Kind of test: FACS, MOLM-13 cells. In general terms: A flow cytometer gives signals particle by particle.
In the case of B2, the binding entry was “binds”.

With B3, the binding result is listed as “binds”.

For B4, the binding result is listed as “binds”.

Regarding B5, the binding entry is “binds”.

Take B6: the binding entry is “binds”.

On to B7, for which the binding entry was “binds”.

Take B8: the binding entry is “binds”.

In the case of B9, the binding result is reported as “binds”.

The target in a further test is human CD4, cell-expressed (human) (UniProt P01730). Kind of test: FACS, MOLM-13 cells.
As for B10, the binding result is “binds”.

Take B11: the binding entry is “binds”.

Turning to B12, the binding result is listed as “binds”.

Turning to B13, the binding entry is given as “binds”.

The next test has as its target T1, CXCR4 and IL-3Rα (CD123) co-expressed on MOLM-13 cells (human). Kind of test: FACS at 4.6 nM, MOLM-13 (CXCR4+/CD123+).
Turning to B2, the binding result is “binds”.

In the case of B3, the binding result is on record as “binds”.

Take B6: the binding entry was “binds”.

Regarding B9, the binding entry is “binds”.

The next test addresses human CD4, cell-expressed (human) (UniProt P01730). As to the kind of experiment: FACS, activated human T cells (CD4 very high, IL12R moderate).
On to B10, for which the binding entry is listed as “binds”.

Take B11: the binding result is recorded as “binds”.

Take B12: the binding entry is given as “binds”.

For B13, the binding result is “binds”.

In the next test the target is T1, CXCR4 and IL-3Rα (CD123) co-expressed on MOLM-13 cells (human). Kind of test: FACS at 4.6 nM, mixed MOLM-13 and Jurkat E6-1 cells.
As for B4, the binding result is “binds”.

As for B5, the binding result was “binds”.

B7: the binding entry is “binds”.

As to B8, the binding entry is on record as “binds”.

The next test addresses CXCR4 and CD4 co-expressed on cells (human) (UniProt P61073+P01730). Kind of test: FACS, Jurkat cells.
As for B14, the binding result is “binds”.

The target in a further test is human CD4, cell-expressed (human) (UniProt P01730). Kind of test: multi-colour FACS, TH1 activated T cells.
As to B12, the binding entry is “binds”.
